Source: PubChem BioAssay AID504834 (National Center for Advancing Translational Sciences (NCATS), 2011)
The whole screen tested about 320,000 compounds, of which about 22,000 (6.9%) were called active. This list was built around the results that the source calls inconclusive (neither active nor inactive); the mix of calls is not that of the screen. Calls follow the shape of the dose curve; as a rule, active = well fitted inhibition curve with a large enough effect; inconclusive = small, poorly fitted or top-dose-only effect, or another doubt; inactive = no such curve, though single readings can be large or run the other way. Where the call is inconclusive, the potency comes from a doubtful curve fit.

Assay: Primary qHTS for delayed death inhibitors of the malarial parasite plastid, 96 hour incubation
Details: P. falciparum luciferase reporter growth; series mostly up to 28.7 µM
Summary of the method: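 Infected RBCs, 2% Hct / 0.05% parasitemia final; luciferase-reporter P. falciparum; cpd 96 h, 37 C, 5% CO2; luciferase detection reagent; luminescence.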
Potency is read from the fitted curve at half-maximal effect.

Row | SMILES | Potency
1 | O=C(NCc1ccc(Cl)cc1)c1ccccc1CCc1ccccc1 | inconclusive: 18.5 µM [inhibitor, single point]
2 | O=C(CCN1CCN(c2ccccc2)CC1)NNC(=O)Cc1ccc(Br)cc1 | inactive
3 | Cc1ccc(S(=O)(=O)Nc2nc3ccccc3s2)cc1[N+](=O)[O-] | inconclusive: 11.7 µM [inhibitor, partial curve]
4 | CCOC(=O)c1ccc(NC(=S)NN2CCOCC2)cc1 | inconclusive: 0.0165 µM [inhibitor, full curve]
5 | Cc1nn(C)cc1/C=N\NC(=O)c1ccc2c(c1)c(C)c(C)n2Cc1ccccc1 | inconclusive: 11.7 µM [inhibitor, single point]
6 | CCN(CC)C(c1ccc(C)cc1)c1nnnn1C1CCCCC1 (stereo unspecified) | inactive
7 | CCOc1ccc(CCNC(=O)C2(c3ccccc3)CC2)cc1OCC | inconclusive: 10.4 µM [inhibitor, single point]
8 | O=C(/C=C/c1ccccc1)Nc1scc(-c2ccccc2)c1C(=O)O | inconclusive: 13.1 µM [inhibitor, partial curve, poor fit]
9 | CCN(CC)S(=O)(=O)c1cc(C(=O)Nc2cccnc2Cl)ccc1Cl | inactive
10 | C=CCSc1nc(C)cc2c1C(=O)OC2 | inconclusive: 13.1 µM [inhibitor, partial curve, poor fit]
11 | COc1ccc(CNC(=O)CCn2c(=O)c3cccn3c3ccc(F)cc32)cc1 | inconclusive: 18.5 µM [inhibitor, single point]
12 | S=C1Nc2ccccc2Sc2ccc(Cl)cc21 | inconclusive: 18.5 µM [inhibitor, single point]
13 | O=C(Nc1cc(Cl)ccc1N1CCOCC1)c1cccnc1 | inactive
14 | NC(N)=N/N=C/c1ccc(OCc2ccccc2)c(OCc2ccccc2)c1 | inconclusive: 0.657 µM [inhibitor, full curve]
15 | CCc1ccc(-c2cc(C)no2)cc1S(=O)(=O)N1CCOc2ccc(C)cc21 | inconclusive: 11.7 µM [inhibitor, partial curve, poor fit]
16 | NN=C1c2cc([N+](=O)[O-])ccc2-c2ccc([N+](=O)[O-])cc21 | inconclusive: 2.33 µM [inhibitor, full curve, poor fit]
17 | O=C(c1cc(Cl)ccc1OCc1ccccc1)N1CCOCC1 | inactive
18 | Cc1ccccc1NC(=O)COC(=O)C1CC2CCCC(C1)C2=O (stereo unspecified) | inconclusive: 18.5 µM [inhibitor, single point]
19 | O=C(NC1CC1)C1=C[C@@H](c2coc3ccccc3c2=O)C[C@@H](OCc2ccc(CO)cc2)O1 | inconclusive: 16.5 µM [inhibitor, single point]
20 | CCOC(=O)C(=O)N(Nc1ccc(C)cc1)c1ccc(C)cc1 | inconclusive: 18.5 µM [inhibitor, single point]
21 | COc1ccc(S(=O)(=O)Nc2cc3c4c(c2)CC(=O)N4CCC3)cc1 | inconclusive: 10.4 µM [inhibitor, single point]
22 | N#Cc1cc2c(nc1SCc1ccccc1)CCCC2 | inconclusive: 11.7 µM [inhibitor, partial curve, poor fit]
23 | Cc1nn(-c2ccccc2)c(N2CCCC2)c1/C=N/NC(=O)C1CC1 | active: 11.7 µM

Quoted from the listing:
Potency with O=C(NC1CC1)C1=C[C@@H](c2coc3ccccc3c2=O)C[C@@H](OCc2ccc(CO)cc2)O1 reads inconclusive: 16.5 µM [inhibitor, single point]
Potency with O=C(Nc1cc(Cl)ccc1N1CCOCC1)c1cccnc1 reads inactive
Potency with CCOC(=O)C(=O)N(Nc1ccc(C)cc1)c1ccc(C)cc1 reads inconclusive: 18.5 µM [inhibitor, single point]

The results go on:

Row | SMILES | Potency
24 | O=C(Oc1ccc(N2C(=O)C3C4CCC(C4)C3C2=O)cc1)c1ccco1 (stereo unspecified) | inactive
25 | CC(C)(C)n1nc2c(c1NC(=O)c1cc([N+](=O)[O-])ccc1Cl)CS(=O)(=O)C2 | inactive
26 | C/C(=C/C(=O)N1CCc2ccccc21)C(=O)O | inconclusive: 10.4 µM [inhibitor, single point]
27 | Cc1ccc(C23CC4CC(CC(C(=O)N5CCN(C)CC5)(C4)C2)C3)cc1 | inconclusive: 10.4 µM [inhibitor, single point]
28 | C=CCN1CCN(C(=O)CCc2ccccc2)CC1 | inactive
29 | COc1ccc(S(=O)(=O)N2CCN(C3CCCC(C)C3)CC2)cc1 (stereo unspecified) | inconclusive: 4.65 µM [inhibitor, partial curve]
30 | CCS(=O)(=O)c1nc(S(=O)(=O)c2ccc(C)cc2)c(N2CCN(C)CC2)s1 | inconclusive: 18.5 µM [inhibitor, single point]
31 | CCOC(=O)C1CCCN(S(=O)(=O)c2ccc(C)cc2)C1 (stereo unspecified) | inactive
32 | O=C1c2ccccc2C(=O)N1CCCCSc1nnc2ccccn12 | inconclusive: 10.4 µM [inhibitor, partial curve, poor fit]
33 | Nc1ccc(Nc2nc(-c3cc4ccccc4oc3=O)cs2)cc1 | inconclusive: 18.5 µM [inhibitor, single point]
34 | O=C(O)c1ccccc1SSc1ccccc1C(=O)O | inactive
35 | S=C1NCN(CCc2ccccc2)CN1Cc1ccccc1 | inconclusive: 0.0657 µM [inhibitor, full curve, poor fit]
36 | COCCCNC(=O)CC(C)c1ccccc1 (stereo unspecified) | inconclusive: 18.5 µM [inhibitor, single point]
37 | COCCNC(=O)C(=O)NNS(=O)(=O)c1ccc2ccccc2c1 | inconclusive: 18.5 µM [inhibitor, single point]
38 | COc1cc2c(cc1OC)CN(C(=O)/C=C/c1cc(OC)c(OC)c(OC)c1)CC2 | active: 4.65 µM
39 | CCCCN(C)C(=O)CNC(=O)c1nn(-c2ccc(OC)cc2OC)c(=O)c2ccccc12 | inconclusive: 18.5 µM [inhibitor, single point]
40 | CCn1c(-c2cc(C3CC3)nc3ccccc23)n[nH]c1=S | inconclusive: 18.5 µM [inhibitor, single point]
41 | COc1ccc(C)cc1Nc1n[n+](-c2ccccc2)c(-c2ccc(N(C)C)cc2)s1 | active: 2.08 µM
42 | CC(=O)NC(CC(=O)NNC(=O)C(C)Oc1ccccc1F)c1ccccc1 (stereo unspecified) | inactive
43 | O=c1[nH]cc([N+](=O)[O-])cc1Br | inactive
44 | COc1ccc(CCNc2oc(-c3ccccc3OC)nc2C#N)cc1OC | inconclusive: 5.22 µM [inhibitor, partial curve]
45 | Clc1ccc2c(NCc3ccccn3)ncnc2c1 | inconclusive: 13.1 µM [inhibitor, single point]
46 | Cc1noc(NS(=O)(=O)c2ccc(N/C=C/C(=O)c3ccc4c(c3)OCO4)cc2)c1C | inconclusive: 18.5 µM [inhibitor, single point]
